In paper PMC9833666 (Science Advances, 2023):
End groups of sequences in plain letters are not given here.

Assay: peptide made by a vendor
Conditions: whole synthesis, reversed-phase high-performance LC and MS quality control, one disulfide bridge, sequence written open

CRVRIDINNGRRRLKLQLQC
purity (crude or final not stated): 74.3%

CRIKVDIDDRRGRVRLQLEC
purity (crude or final not stated): 83.6%
